# Results taken from patent publication US20130059773A1, “COMPOUNDS FOR THE TREATMENT OF INFLAMMATION AND NEUTROPENIA” (priority 2010, published 2013).
# Amino acid sequences for entries named in this document (tags omitted). A change or cut given only in a name is not applied to a line headed by its entry.
# UniProt P12004: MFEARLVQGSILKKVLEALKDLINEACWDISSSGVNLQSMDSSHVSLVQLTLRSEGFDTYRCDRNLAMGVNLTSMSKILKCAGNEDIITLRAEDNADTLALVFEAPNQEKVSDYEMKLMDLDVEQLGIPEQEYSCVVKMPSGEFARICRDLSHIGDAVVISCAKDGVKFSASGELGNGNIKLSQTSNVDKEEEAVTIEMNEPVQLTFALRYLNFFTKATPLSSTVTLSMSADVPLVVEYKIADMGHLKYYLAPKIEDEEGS
# Results are given in words; binding and its absence hold for the method and conditions named. Some entries that bind do so weakly or less than the wild type.
# B1: p21 peptide … used in the molecular dynamics simulations (peptide)
# peptide: RQTSMTDFYHSKR
# Legend:
# [1] = target: PCNA trimer (coordinates from X-ray structure PDB ID 1VYJ, used in molecular dynamics simulations) (human) (UniProt P12004); experiment: molecular dynamics simulation (in silico), PCNA trimer with p21 peptides
# [2] = target: PCNA trimer (coordinates from X-ray structure PDB ID 1VYJ, used in molecular dynamics simulations) (human) (UniProt P12004); experiment: molecular dynamics simulation (in silico), PCNA trimer with two p21 peptides and one modified peptide
binder,measurement,setting,value
B1,binding,[1],binds
same,binding,[2],binds
